Publication PMC9104323
These are yes or no findings as the source states them, for the method shown. In cells and extracts the contact can be indirect.

The chains behind the UniProt entries cited, without tags or fusion partners.
UniProt P04150: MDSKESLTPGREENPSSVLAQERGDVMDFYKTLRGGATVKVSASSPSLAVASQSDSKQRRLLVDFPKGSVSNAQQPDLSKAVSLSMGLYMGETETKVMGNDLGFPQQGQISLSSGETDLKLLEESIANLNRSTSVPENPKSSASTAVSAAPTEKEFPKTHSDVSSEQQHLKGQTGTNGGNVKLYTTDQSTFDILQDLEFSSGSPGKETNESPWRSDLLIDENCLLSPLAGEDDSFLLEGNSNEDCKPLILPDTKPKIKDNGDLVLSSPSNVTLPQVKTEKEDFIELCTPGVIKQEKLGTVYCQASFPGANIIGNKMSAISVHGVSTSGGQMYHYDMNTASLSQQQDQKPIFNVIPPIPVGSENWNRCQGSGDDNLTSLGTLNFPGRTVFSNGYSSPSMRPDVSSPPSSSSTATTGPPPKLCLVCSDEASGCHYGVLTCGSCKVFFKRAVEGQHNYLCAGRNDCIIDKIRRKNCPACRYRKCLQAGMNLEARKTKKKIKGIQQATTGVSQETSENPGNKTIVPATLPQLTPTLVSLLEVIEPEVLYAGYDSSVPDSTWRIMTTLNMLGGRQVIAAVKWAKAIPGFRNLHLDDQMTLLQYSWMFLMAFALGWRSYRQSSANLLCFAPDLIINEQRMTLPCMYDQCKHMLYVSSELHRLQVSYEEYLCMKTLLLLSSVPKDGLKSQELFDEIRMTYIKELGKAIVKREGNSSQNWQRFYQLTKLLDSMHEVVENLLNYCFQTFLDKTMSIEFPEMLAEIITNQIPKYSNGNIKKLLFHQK
UniProt Q13263: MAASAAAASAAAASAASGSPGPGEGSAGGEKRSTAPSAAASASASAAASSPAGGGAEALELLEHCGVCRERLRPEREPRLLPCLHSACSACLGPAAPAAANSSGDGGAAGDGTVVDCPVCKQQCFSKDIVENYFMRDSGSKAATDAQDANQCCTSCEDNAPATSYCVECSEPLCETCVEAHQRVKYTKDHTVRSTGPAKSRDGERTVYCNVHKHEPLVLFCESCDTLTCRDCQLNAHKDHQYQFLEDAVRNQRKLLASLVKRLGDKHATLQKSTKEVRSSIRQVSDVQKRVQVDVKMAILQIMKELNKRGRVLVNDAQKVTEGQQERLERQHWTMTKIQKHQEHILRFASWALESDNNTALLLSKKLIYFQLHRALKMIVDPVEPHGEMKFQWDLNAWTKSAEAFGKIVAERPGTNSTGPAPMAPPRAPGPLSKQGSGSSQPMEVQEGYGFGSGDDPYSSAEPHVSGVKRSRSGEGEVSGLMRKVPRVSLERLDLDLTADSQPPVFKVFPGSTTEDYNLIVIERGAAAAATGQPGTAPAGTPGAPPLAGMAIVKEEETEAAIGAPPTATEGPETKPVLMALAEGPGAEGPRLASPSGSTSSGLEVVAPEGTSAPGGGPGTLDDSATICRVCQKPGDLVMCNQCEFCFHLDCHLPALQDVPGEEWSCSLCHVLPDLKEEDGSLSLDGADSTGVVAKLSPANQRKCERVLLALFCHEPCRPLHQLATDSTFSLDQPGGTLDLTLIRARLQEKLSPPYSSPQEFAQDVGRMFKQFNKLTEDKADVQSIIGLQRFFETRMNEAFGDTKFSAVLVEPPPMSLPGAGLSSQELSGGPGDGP

Molecular target: glucocorticoid receptor (human (endogenous in HEK293)) (UniProt P04150)
Test: co-IP; IP from HEK293 whole cell lysates with anti-GR (G-5), anti-AMPD2 (QQ13) and anti-TRIM28 (PA5-27648) antibodies; western blot for GR, AMPD2 and TRIM28

binding	Molecule
no binding	transcription intermediary factor 1-beta (from UniProt Q13263 1-835)
no binding	AMP deaminase 2 (protein, UniProt Q01433 1-825) MASYPSGSGKPKAKYPFKKRASLQASTAAPEARGGLGAPPLQSARSLPGPAPCLKHFPLDLRTSMDGKCKEIAEELFTRSLAESELRSAPYEFPEESPIEQLEERRQRLERQISQDVKLEPDILLRAKQDFLKTDSDSDLQLYKEQGEGQGDRSLRERDVLEREFQRVTISGEEKCGVPFTDLLDAAKSVVRALFIREKYMALSLQSFCPTTRRYLQQLAEKPLETRTYEQGPDTPVSADAPVHPPALEQHPYEHCEPSTMPGDLGLGLRMVRGVVHVYTRREPDEHCSEVELPYPDLQEFVADVNVLMALIINGPIKSFCYRRLQYLSSKFQMHVLLNEMKELAAQKKVPHRDFYNIRKVDTHIHASSCMNQKHLLRFIKRAMKRHLEEIVHVEQGREQTLREVFESMNLTAYDLSVDTLDVHADRNTFHRFDKFNAKYNPIGESVLREIFIKTDNRVSGKYFAHIIKEVMSDLEESKYQNAELRLSIYGRSRDEWDKLARWAVMHRVHSPNVRWLVQVPRLFDVYRTKGQLANFQEMLENIFLPLFEATVHPASHPELHLFLEHVDGFDSVDDESKPENHVFNLESPLPEAWVEEDNPPYAYYLYYTFANMAMLNHLRRQRGFHTFVLRPHCGEAGPIHHLVSAFMLAENISHGLLLRKAPVLQYLYYLAQIGIAMSPLSNNSLFLSYHRNPLPEYLSRGLMVSLSTDDPLQFHFTKEPLMEEYSIATQVWKLSSCDMCELARNSVLMSGFSHKVKSHWLGPNYTKEGPEGNDIRRTNVPDIRVGYRYETLCQELALITQAVQSEMLETIPEEAGITMSPGPQ
